# Measured values: the supplement of paper PMC5407854, “Inhibitor of ppGalNAc-T3-mediated O-glycosylation blocks cancer cell invasiveness and lowers FGF23 levels” (eLife, 2017)
# Over roughly 1,700 compounds, “T3 sensor activation Q score (MG/GFP ratio z-score vs DMSO controls)” has its median near 0.25; the highest 2% begin near 1.9. The list shows a part of the results.
# Tested on: ppGalNAc-T3 sensor
# Assay: T3 sensor activation Q score (MG/GFP ratio z-score vs DMSO controls) (SD units); higher = more sensor activation (inhibition of ppGalNAc-T3 glycosylation)
# Conditions: HEK293 sensor cells; 10 µM; 6 h
# Procedure: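 Cells were treated with compound at 10 uM for 6 h, then MG/GFP ratio was read by flow cytometry (10,000 cells per well, duplicate wells). Q = (R - R_neg)/SD_neg relative to DMSO vehicle controls; the signal rises when the glycosyltransferase is inhibited.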
row,Compound,T3 sensor activation Q score
1,CC(C)(c1cc(Cl)c(O)c(CN2CCOCC2)c1)c1cc(Cl)c(O)c(CN2CCOCC2)c1,0.6
2,Cc1cc(N2CCOCC2)nc(N2CCOCC2)n1,0
3,CCOc1ccc(NC(=O)N(O)C2(C#N)CCCCC2)cc1,0.8
4,Nc1nc(N)nc(-c2ccccc2-c2nc(N)nc(N)n2)n1,1.45
5,C1COCCN1.O=C(O)C(C=C(Cl)Cl)N1CCOCC1 (stereo unspecified),0.9
6,O=c1[nH]cnc2[nH]ncc12,0.8
7,CC(C)c1nc2c([nH]1)c(=O)n(C)c(=O)n2C,-1.8
8,CCOC(=O)C(=O)Cc1cccnn1,0.35
9,O=C(O)CCCC[C@@H]1SC[C@@H]2NC(=O)N[C@@H]21,0.5
10,OC1COC(OCc2ccccc2)C(O)C1O (stereo unspecified),0.75
11,Nc1cc(N)nc(CS)n1,0.95
12,O=C1C(Br)=Cc2cccc3cccc1c23,0
13,CCSc1ncc(CO)c(N)n1,0.85
14,Nc1ccc2c(c1)nnn2-c1ccccc1,0.15
15,CN(C)C/C=C/C(=O)Nc1cc2c(Nc3ccc(F)c(Cl)c3)ncnc2cc1O[C@H]1CCOC1,-1.4
16,N#Cc1nnn(-c2ccc(Cl)cc2)c1N,0.9
17,S=C(Nc1ccccc1)c1ccccn1,-0.9
18,C#CCC(Cc1cnc2nc(N)nc(N)c2n1)c1ccc(C(=O)N[C@@H](CCC(=O)O)C(=O)O)cc1 (stereo partly specified),-2.25

# Reprinted at random: 2 compounds from above, in no set order.
row,Compound,T3 sensor activation Q score
10,OC1COC(OCc2ccccc2)C(O)C1O (stereo unspecified),0.75
1,CC(C)(c1cc(Cl)c(O)c(CN2CCOCC2)c1)c1cc(Cl)c(O)c(CN2CCOCC2)c1,0.6

# Continued.

row,Compound,T3 sensor activation Q score
1,Cc1ccc(S(=O)(=O)N(C)C)cc1[N+](=O)[O-],-0.1
2,NC(=Nc1ccc(N)cc1)C(N)=Nc1ccc(N)cc1,-0.8
3,C=C1CC2(OC1=O)c1ccccc1CCc1ccccc12,-0.45
4,O=[N+]([O-])c1cc(Cl)cc2c1nc(NCCO)c1ccccc12,0.25
5,c1ccc2[nH]c(CCCCCc3nc4ccccc4[nH]3)nc2c1,-0.5
6,Clc1ccc2nc3ccccc3cc2c1,0.15
7,CSc1ccc(NC(=O)Nc2ccccc2C(N)=O)cc1,0.5
8,O=C1c2cc([N+](=O)[O-])ccc2-c2cc(Br)c(N=C(NO)C(F)(F)F)cc21,-0.05
9,C(=N\Nc1nnn(Cc2ccccc2)n1)/c1ccccc1,0.35
10,CCCCOc1ccc(N=Nc2ccc(N)nc2N)cn1,1.7
11,CCN(CC)C(=O)Cn1ccc(NC(C)=O)nc1=O,-0.65
12,CN(C)C(=S)/N=c1\ssc(=S)n1Cc1ccco1,-1.4
13,CC1=CC(C)(C)Nc2ccc(Cc3ccc4c(c3)C(C)=CC(C)(C)N4)cc21,1.8
14,NC(=O)SCC(=O)Nc1ccccc1C(=O)O,1
15,Cc1cccnc1NC(=S)Nc1ncccc1C,0.55
16,Cn1c([N+](=O)[O-])cnc1N1CCN(c2nncs2)C1=O,-0.1
17,CN(C)CCCn1c2c3ccccc3ccc2c2oc(=O)c3ccccc3c21,0.2
18,COc1ccc2c(c1)CCCN2C(N)=Nc1ccc(Cl)cc1,1.1
